Results deposited as PubChem BioAssay AID1508597 (Cure First, 2020)
Purpose: 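Genes whose silencing sensitises or protects ovarian cancer cells against rucaparib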 (primary screen). System: human ovarian carcinoma lines grown from tumours: OCI-P5x (papillary serous) and OCI-C5x (clear cell). Knock-down reagent: siRNA pool against human genes, 1.25 pmol siRNA per well. Duration: 72 h or 96 h, depending on the cell culture. Treatment: rucaparib 20 µM (about IC30) or vehicle, present until read-out. Measured: 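ATP luminescence measured at 72 or 96 h according to the culture, then normalised and expressed as percent viability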. Direction: viability, normalised: higher = more viable cells remaining. Hit rule: 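Active when normalised viability falls below 80 percent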. Calls: active = viability under 80%; inactive = viability 80% or more.
Shown is an unselected part of about 2,100 reagents tested. 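Calls flag viability under 80% in either arm, not effects specific to rucaparib; the reference for percent is not stated.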 Unmarked entries are inactive. Not stated in the record: the 100% reference.

Target gene	rucaparib or vehicle	cell line	technical replicate	viability, normalised (%)
IFNAR1 (GeneID 3454)	Rucaparib	OCI-C5x (clear cell)	1	48.8 (active)
IFNAR1 (GeneID 3454)	Rucaparib	OCI-C5x (clear cell)	2	48.1 (active)
IFNAR1 (GeneID 3454)	Rucaparib	OCI-C5x (clear cell)	3	45.5 (active)
IFNAR1 (GeneID 3454)	Rucaparib	OCI-P5x (serous)	1	36.7 (active)
IFNAR1 (GeneID 3454)	Rucaparib	OCI-P5x (serous)	2	37.4 (active)
IFNAR1 (GeneID 3454)	Rucaparib	OCI-P5x (serous)	3	34.1 (active)
IFNAR1 (GeneID 3454)	Vehicle	OCI-C5x (clear cell)	1	52.4 (active)
IFNAR1 (GeneID 3454)	Vehicle	OCI-C5x (clear cell)	2	56.1 (active)
IFNAR1 (GeneID 3454)	Vehicle	OCI-C5x (clear cell)	3	42.9 (active)
IFNAR1 (GeneID 3454)	Vehicle	OCI-P5x (serous)	1	65.1 (active)
IFNAR1 (GeneID 3454)	Vehicle	OCI-P5x (serous)	2	65.1 (active)
IFNAR1 (GeneID 3454)	Vehicle	OCI-P5x (serous)	3	103
CERKL (GeneID 375298)	Rucaparib	OCI-C5x (clear cell)	1	40.9 (active)
CERKL (GeneID 375298)	Rucaparib	OCI-C5x (clear cell)	2	25.3 (active)
CERKL (GeneID 375298)	Rucaparib	OCI-C5x (clear cell)	3	31.8 (active)
CERKL (GeneID 375298)	Rucaparib	OCI-P5x (serous)	1	71.9 (active)
CERKL (GeneID 375298)	Rucaparib	OCI-P5x (serous)	2	69.1 (active)
CERKL (GeneID 375298)	Rucaparib	OCI-P5x (serous)	3	85
CERKL (GeneID 375298)	Vehicle	OCI-C5x (clear cell)	1	42 (active)
CERKL (GeneID 375298)	Vehicle	OCI-C5x (clear cell)	2	42 (active)
CERKL (GeneID 375298)	Vehicle	OCI-C5x (clear cell)	3	37.8 (active)
CERKL (GeneID 375298)	Vehicle	OCI-P5x (serous)	1	67.5 (active)
CERKL (GeneID 375298)	Vehicle	OCI-P5x (serous)	2	66.9 (active)
CERKL (GeneID 375298)	Vehicle	OCI-P5x (serous)	3	54.2 (active)
RPL3 (GeneID 6122)	Rucaparib	OCI-C5x (clear cell)	1	55.7 (active)
RPL3 (GeneID 6122)	Rucaparib	OCI-C5x (clear cell)	2	41.9 (active)
RPL3 (GeneID 6122)	Rucaparib	OCI-C5x (clear cell)	3	45.5 (active)
RPL3 (GeneID 6122)	Rucaparib	OCI-P5x (serous)	1	50.8 (active)
RPL3 (GeneID 6122)	Rucaparib	OCI-P5x (serous)	2	54.4 (active)
RPL3 (GeneID 6122)	Rucaparib	OCI-P5x (serous)	3	55.3 (active)
RPL3 (GeneID 6122)	Vehicle	OCI-C5x (clear cell)	1	28.1 (active)
RPL3 (GeneID 6122)	Vehicle	OCI-C5x (clear cell)	2	31.2 (active)
RPL3 (GeneID 6122)	Vehicle	OCI-C5x (clear cell)	3	16.7 (active)
RPL3 (GeneID 6122)	Vehicle	OCI-P5x (serous)	1	48.2 (active)
RPL3 (GeneID 6122)	Vehicle	OCI-P5x (serous)	2	43.1 (active)
RPL3 (GeneID 6122)	Vehicle	OCI-P5x (serous)	3	46.4 (active)
CLDN4 (GeneID 1364)	Rucaparib	OCI-C5x (clear cell)	1	56.8 (active)
CLDN4 (GeneID 1364)	Rucaparib	OCI-C5x (clear cell)	2	45.9 (active)
CLDN4 (GeneID 1364)	Rucaparib	OCI-C5x (clear cell)	3	37.5 (active)
CLDN4 (GeneID 1364)	Rucaparib	OCI-P5x (serous)	1	86.1
CLDN4 (GeneID 1364)	Rucaparib	OCI-P5x (serous)	2	95.6
CLDN4 (GeneID 1364)	Rucaparib	OCI-P5x (serous)	3	81.2
CLDN4 (GeneID 1364)	Vehicle	OCI-C5x (clear cell)	1	32 (active)
CLDN4 (GeneID 1364)	Vehicle	OCI-C5x (clear cell)	2	30.7 (active)
CLDN4 (GeneID 1364)	Vehicle	OCI-C5x (clear cell)	3	35.1 (active)
CLDN4 (GeneID 1364)	Vehicle	OCI-P5x (serous)	1	74.5 (active)
CLDN4 (GeneID 1364)	Vehicle	OCI-P5x (serous)	2	91.4
CLDN4 (GeneID 1364)	Vehicle	OCI-P5x (serous)	3	138
DPH3 (GeneID 285381)	Rucaparib	OCI-C5x (clear cell)	1	32.3 (active)
DPH3 (GeneID 285381)	Rucaparib	OCI-C5x (clear cell)	2	38.6 (active)
DPH3 (GeneID 285381)	Rucaparib	OCI-C5x (clear cell)	3	41.1 (active)
DPH3 (GeneID 285381)	Rucaparib	OCI-P5x (serous)	1	52.1 (active)
DPH3 (GeneID 285381)	Rucaparib	OCI-P5x (serous)	2	53.5 (active)
DPH3 (GeneID 285381)	Rucaparib	OCI-P5x (serous)	3	46.6 (active)
DPH3 (GeneID 285381)	Vehicle	OCI-C5x (clear cell)	1	30.8 (active)
DPH3 (GeneID 285381)	Vehicle	OCI-C5x (clear cell)	2	42.2 (active)
DPH3 (GeneID 285381)	Vehicle	OCI-C5x (clear cell)	3	31.9 (active)
DPH3 (GeneID 285381)	Vehicle	OCI-P5x (serous)	1	35.7 (active)
DPH3 (GeneID 285381)	Vehicle	OCI-P5x (serous)	2	41.9 (active)
DPH3 (GeneID 285381)	Vehicle	OCI-P5x (serous)	3	39.8 (active)
DNM3 (GeneID 26052)	Rucaparib	OCI-C5x (clear cell)	1	44.6 (active)
DNM3 (GeneID 26052)	Rucaparib	OCI-C5x (clear cell)	2	35.1 (active)
DNM3 (GeneID 26052)	Rucaparib	OCI-C5x (clear cell)	3	44.2 (active)
DNM3 (GeneID 26052)	Rucaparib	OCI-P5x (serous)	1	61.3 (active)
DNM3 (GeneID 26052)	Rucaparib	OCI-P5x (serous)	2	66.8 (active)
DNM3 (GeneID 26052)	Rucaparib	OCI-P5x (serous)	3	56.4 (active)
DNM3 (GeneID 26052)	Vehicle	OCI-C5x (clear cell)	1	54.3 (active)
DNM3 (GeneID 26052)	Vehicle	OCI-C5x (clear cell)	2	40 (active)
DNM3 (GeneID 26052)	Vehicle	OCI-C5x (clear cell)	3	54.3 (active)
DNM3 (GeneID 26052)	Vehicle	OCI-P5x (serous)	1	68.3 (active)
DNM3 (GeneID 26052)	Vehicle	OCI-P5x (serous)	2	53.3 (active)
DNM3 (GeneID 26052)	Vehicle	OCI-P5x (serous)	3	73.8 (active)
CBX4 (GeneID 8535)	Rucaparib	OCI-C5x (clear cell)	1	59.2 (active)
CBX4 (GeneID 8535)	Rucaparib	OCI-C5x (clear cell)	2	43.9 (active)
CBX4 (GeneID 8535)	Rucaparib	OCI-C5x (clear cell)	3	49.7 (active)
CBX4 (GeneID 8535)	Rucaparib	OCI-P5x (serous)	1	93.1
CBX4 (GeneID 8535)	Rucaparib	OCI-P5x (serous)	2	92.6
CBX4 (GeneID 8535)	Rucaparib	OCI-P5x (serous)	3	99.3
CBX4 (GeneID 8535)	Vehicle	OCI-C5x (clear cell)	1	50.7 (active)
CBX4 (GeneID 8535)	Vehicle	OCI-C5x (clear cell)	2	60.3 (active)
CBX4 (GeneID 8535)	Vehicle	OCI-C5x (clear cell)	3	65.1 (active)
CBX4 (GeneID 8535)	Vehicle	OCI-P5x (serous)	1	85.1
CBX4 (GeneID 8535)	Vehicle	OCI-P5x (serous)	2	90
CBX4 (GeneID 8535)	Vehicle	OCI-P5x (serous)	3	88

6 neighbouring records already listed, for reference:
Target gene	rucaparib or vehicle	cell line	technical replicate	viability, normalised (%)
DPH3 (GeneID 285381)	Vehicle	OCI-P5x (serous)	2	41.9 (active)
DPH3 (GeneID 285381)	Vehicle	OCI-P5x (serous)	3	39.8 (active)
DNM3 (GeneID 26052)	Rucaparib	OCI-C5x (clear cell)	1	44.6 (active)
DNM3 (GeneID 26052)	Rucaparib	OCI-C5x (clear cell)	2	35.1 (active)
DNM3 (GeneID 26052)	Rucaparib	OCI-C5x (clear cell)	3	44.2 (active)
DNM3 (GeneID 26052)	Rucaparib	OCI-P5x (serous)	1	61.3 (active)
